# Measurements as given in PubChem BioAssay AID540276 (National Center for Advancing Translational Sciences (NCATS), 2011).
# About 5,400 (1.8%) of roughly 300,000 compounds were called active. Inconclusive results, whose numbers are uncertain, are shown with a selection of clear calls. The call rests on the fitted dose curve; tested in HEK293 cells. Potencies of inconclusive entries are doubtful fits and often do not repeat.
# Assay: qHTS for inhibitors of binding or entry into cells for Marburg Virus
# Details: Marburg virus pseudotyped entry inhibition, cell reporter; activity change, negative = inhibition: at 37.8 µM (top of the series) unless noted
# On the % scale 0 is the no-effect control and ±100 the full control effect; potency means the concentration at half of the fitted maximal effect.
SMILES,Potency,"activity change, negative = inhibition"
COc1cccc(CN(C)C(=O)C(Cc2ccccc2)NC(=O)c2ccccc2)c1OC (stereo not drawn),"inconclusive: 4.47 µM [inhibitor, full curve]",
COc1cccc(N2CCN(C(=O)CN3C(=O)NC4(CCCC4)C3=O)CC2)c1,"inconclusive: 12.6 µM [activator, single point]",
C=CCNC(=S)N/N=C/c1ccc(-c2ccc(Br)cc2)o1,"inconclusive: 0.794 µM [inhibitor, full curve, poor fit]",
O=C(CNC(=O)c1ccc2c(c1)OCCO2)N/N=C/c1ccc(Cl)cc1,,inactive: -4.6%
CCc1ccc(S(=O)(=O)c2cn(Cc3ccccc3)c3cc(F)c(F)cc3c2=O)cc1,,inactive: -8.8% [at 46.1 µM]
COc1ccccc1CCNC(=O)C(=O)NCCC1CCCCN1S(=O)(=O)c1cccs1 (stereo not drawn),"inconclusive: 25.1 µM [inhibitor, single point]",
O=C(O)c1cccc(N2C(=O)CSC2=S)c1,"inconclusive: 10 µM [activator, partial curve, poor fit]",
Cc1ccc(-n2nc(CO)c(C(=O)NCc3cccnc3)n2)cc1,"inconclusive: 14.1 µM [inhibitor, single point]",
CC(=O)Nc1ccc(NC(=O)CC(C)n2ccnc2)cc1 (stereo not drawn),,inactive: -7.18% [at 46.1 µM]
CC(Sc1nnc(CN2CCCC2)n1Cc1ccccc1)C(=O)Nc1ccc(F)c(F)c1F (stereo not drawn),"inconclusive: 11.2 µM [inhibitor, partial curve, poor fit]",
COCCC(=O)N1CCC(Oc2ccc(C(=O)N3C[C@H]4CC[C@H]3C4)cc2)CC1,"inconclusive: 31.6 µM [activator, single point]",
O=C(N/N=C/c1cccnc1)c1[nH]ncc1Br,"inconclusive: 2.82 µM [activator, full curve]",
Cc1ccc(C)n1-c1nnc(N2CCCC(C(=O)NCc3cccc(F)c3)C2)s1 (stereo not drawn),,inactive: -29.9% [at 46.1 µM]
O=C(NC(CC1=CCCCC1)c1ccccc1)C(F)(F)F (stereo not drawn),,inactive: 58.8% [at 14.2 µM]
O=C(COC(=O)C1CC2C=CC1C2)Nc1cccc(S(=O)(=O)N2CCCCC2)c1 (stereo not drawn),"inconclusive: 35.5 µM [inhibitor, partial curve, poor fit]",
CCOc1ccc(Cl)cc1S(=O)(=O)N1CCC(C(=O)NCC2CCCO2)CC1 (stereo not drawn),"inconclusive: 35.5 µM [activator, single point]",
CCS(=O)(=O)N1CCC(C(=O)NCCc2ccc(OC)c(OC)c2)CC1,,inactive: 4.48%
COc1cc(S(=O)(=O)N2CCC(O)(c3cccc(C(F)(F)F)c3)CC2)ccc1-n1cnnn1,inactive,
Cn1nc(NC(=O)CC(C)(C)CC(=O)O)c2ccccc21,"inconclusive: 0.631 µM [inhibitor, full curve, poor fit]",
Cc1ccc(C)c(S(=O)(=O)N2CCN(C(=O)c3cc(-c4cccs4)nn3-c3ccccc3)CC2)c1,"inconclusive: 10 µM [inhibitor, partial curve]",
CCn1cc(C(=O)NCCCN2CCCC(C)C2)c(=O)c2cc(S(=O)(=O)N3CCc4ccccc4C3)ccc21 (stereo not drawn),"inconclusive: 17.8 µM [inhibitor, partial curve, poor fit]",
O=C(NCCN1CCCCC1)c1cc(COc2c(F)cccc2F)on1,"inconclusive: 1 µM [inhibitor, partial curve, poor fit]",

# Single values from the list:
# O=C(CNC(=O)c1ccc2c(c1)OCCO2)N/N=C/c1ccc(Cl)cc1 – activity change, negative = inhibition: inactive: -4.6%
# O=C(N/N=C/c1cccnc1)c1[nH]ncc1Br – Potency: inconclusive: 2.82 µM [activator, full curve]
# CC(=O)Nc1ccc(NC(=O)CC(C)n2ccnc2)cc1 (stereo not drawn) – activity change, negative = inhibition: inactive: -7.18% [at 46.1 µM]

# (more compounds)

SMILES,Potency,"activity change, negative = inhibition"
COc1ccc(C(=O)/C=C/c2ccc3c(c2)OCCO3)cc1,,inactive: -12.8%
CC(C)c1ccc(C(=O)OCC(=O)c2c(N)n(C)c(=O)n(C)c2=O)cc1,"inconclusive: 10 µM [inhibitor, partial curve, poor fit]",
COc1cc(/C=N/NC(=O)c2c(-c3ccccc3)noc2C)ccc1O,"inconclusive: 5.62 µM [activator, single point]",
CCNc1nc(NCC)n2c(SCC(=O)Nc3ccc(OC)c(OC)c3)nnc2n1,"inconclusive: 3.55 µM [activator, single point]",
COc1ccc(/C(C)=N/N=C2/NC(=O)CC(C(=O)O)S2)cc1 (stereo not drawn),,inactive: 4.81%
COc1ccc(S(=O)(=O)N2N=C(C)Oc3ccccc3C2=O)cc1,"inconclusive: 3.55 µM [inhibitor, full curve, poor fit]",
Cc1cccn2c(=O)c(C=O)c(Sc3ncccn3)nc12,"inconclusive: 28.2 µM [inhibitor, single point]",
Cc1cccn2c(CNCC3(c4ccccc4)CCCC3)c(C(=O)N3CCOCC3)nc12,active: 8.91 µM,
CCN(C1CCS(=O)(=O)C1)S(=O)(=O)c1ccc(OC)c(OC)c1 (stereo not drawn),,inactive: 0.0766%
O=C(COc1cccc(-n2cnnn2)c1)N1CCOCC1,"inconclusive: 29.1 µM [inhibitor, partial curve, poor fit]",
COc1cccc(C2=NOC(C(=O)N3CCC4(CC3)OCCO4)C2)c1 (stereo not drawn),,inactive: 1.27%
Nc1cc(=O)[nH]c(SCC(=O)Nc2cc(Cl)cc(Cl)c2)n1,"inconclusive: 35.5 µM [activator, single point]",
COc1cc(OC)cc(-c2cc3nc(C)c(CCC(=O)NCc4ccc(Cl)cc4)c(C)n3n2)c1,active: 4.47 µM,
COC(=O)c1cccc(NC(=O)/C=C/c2ccc([N+](=O)[O-])cc2)c1,"inconclusive: 1.41 µM [inhibitor, partial curve, poor fit]",
COc1ccc(-c2nnc(N(C)C(=O)c3ccno3)s2)cc1,,inactive: -6.25%
COC1OC(O)C(NC(=O)C(F)(F)F)CC1O (stereo not drawn),,inactive: -1.55%
CCOC(=O)CN1NC2(CCCC(C)C2)NC1=S (stereo not drawn),"inconclusive: 1.46 µM [activator, partial curve, poor fit]",
CN(c1ccc(C(=O)Nc2cccnc2)cc1)S(=O)(=O)c1ccc(Cl)cc1,"inconclusive: 20 µM [inhibitor, partial curve, poor fit]",
COc1ccc(N(CC(=O)NC2CC3CCC2C3)S(=O)(=O)c2ccc(C)cc2)cc1 (stereo not drawn),"inconclusive: 17.8 µM [inhibitor, partial curve, poor fit]",
COc1ccc(OC)c(S(=O)(=O)Nc2ccc(-c3ccc4nncn4n3)cc2)c1,"inconclusive: 22.4 µM [inhibitor, single point]",
Cc1cccc(NC(=O)C2CCC(CNS(=O)(=O)c3ccc(Br)s3)CC2)c1 (stereo not drawn),"inconclusive: 35.5 µM [activator, single point]",
